Values from PubChem BioAssay AID743121 (NCATS, 2013).
Aim: 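Genes whose silencing strengthens cell killing by camptothecin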 (primary screen). System: MDA-MB-231 cells, a human breast cancer line. Reagent: single siRNA against human genes, 20 nM siRNA (0.8 pmol per well). Duration: 120 h (drug added 48 h after transfection, read 72 h later). Treatment: camptothecin 20 nM (about EC30) for 72 h; vehicle 0.1% DMSO in parallel plates. Detection: 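CellTiter-Glo ATP signal, scaled to control siRNA as percent viability; sensitisation given as log2 of untreated divided by camptothecin-treated viability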. Scale: log2 vehicle/camptothecin viability: higher = stronger sensitisation to camptothecin; viability with camptothecin and viability without drug: higher = more viable cells. Active means: 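Each gene scored by redundant siRNA activity (RSA) over its individual siRNA ratios; a gene is called active at p < 0.001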.
The whole screen tested about 26,000 reagents; shown is a random part of them. Over the whole deposit, 167 (0.63%) were called active. 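Calls are per gene from RSA p-values that are not deposited; an individual active-marked siRNA can sensitise only weakly.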 Reagents against one gene are numbered here.

| log2 vehicle/camptothecin viability | viability with camptothecin (% of control) | viability without drug (% of control) | Call | gene knocked down | reagent |
| --- | --- | --- | --- | --- | --- |
| 0.272 | 79.4 | 95.8 | inactive | HTR7 (GeneID 3363) | 1 |
| -0.111 | 80.5 | 74.5 | inactive | HTR7 (GeneID 3363) | 2 |
| 0.342 | 76.3 | 96.7 | inactive | HTR7 (GeneID 3363) | 3 |
| -0.18 | 89.9 | 79.4 | inactive | HTR7 (GeneID 3363) | 4 |
| 0.0116 | 72.7 | 73.3 | inactive | NOTCH3 (GeneID 4854) | 1 |
| -0.652 | 56.9 | 36.2 | inactive | NOTCH3 (GeneID 4854) | 2 |
| -0.046 | 82.7 | 80.1 | inactive | NOTCH3 (GeneID 4854) | 3 |
| -0.595 | 97.5 | 64.6 | inactive | NOTCH3 (GeneID 4854) | 4 |
| -0.319 | 47.1 | 37.8 | inactive | ADCY3 (GeneID 109) | 1 |
| -0.0795 | 66.7 | 63.1 | inactive | ADCY3 (GeneID 109) | 2 |
| 0.364 | 79.1 | 102 | inactive | ADCY3 (GeneID 109) | 3 |
| 0.0061 | 56.5 | 56.7 | inactive | ADCY3 (GeneID 109) | 4 |
| -0.0703 | 97.8 | 93.2 | inactive | FAM89B (GeneID 23625) | 1 |
| 0.347 | 20.3 | 25.9 | inactive | FAM89B (GeneID 23625) | 2 |
| -0.286 | 73.2 | 60.1 | inactive | FAM89B (GeneID 23625) | 3 |
| -0.49 | 26.4 | 18.8 | inactive | FAM89B (GeneID 23625) | 4 |
| -0.0197 | 125 | 123 | inactive | CBFB (GeneID 865) | 1 |
| 0.0503 | 108 | 112 | inactive | CBFB (GeneID 865) | 2 |
| -0.22 | 64.2 | 55.1 | inactive | CBFB (GeneID 865) | 3 |
| 0.0926 | 75.2 | 80.2 | inactive | HSD17B4 (GeneID 3295) | 1 |
| 0.0539 | 80.2 | 83.3 | inactive | HSD17B4 (GeneID 3295) | 2 |
| -0.374 | 70.3 | 54.3 | inactive | HSD17B4 (GeneID 3295) | 3 |
| -0.122 | 96.9 | 89 | inactive | HSD17B4 (GeneID 3295) | 4 |
| 0.246 | 36.1 | 42.8 | inactive | CACNA1G (GeneID 8913) | 1 |
| 0.442 | 29.4 | 40 | inactive | CACNA1G (GeneID 8913) | 2 |
| 0.114 | 73 | 79 | inactive | CACNA1G (GeneID 8913) | 3 |
| 0.0926 | 58.2 | 62 | inactive | CACNA1G (GeneID 8913) | 4 |
| 0.425 | 10.8 | 14.5 | inactive | GNB3 (GeneID 2784) | 1 |
| -0.287 | 91 | 74.6 | inactive | GNB3 (GeneID 2784) | 2 |
| -0.634 | 95.3 | 61.4 | inactive | GNB3 (GeneID 2784) | 3 |
| -1.11 | 83.4 | 38.7 | inactive | GNB3 (GeneID 2784) | 4 |
| -0.0445 | 105 | 102 | inactive | CCDC170 (GeneID 80129) | 1 |
| -0.329 | 91.6 | 72.9 | inactive | CCDC170 (GeneID 80129) | 2 |
| -0.103 | 57.2 | 53.2 | inactive | CCDC170 (GeneID 80129) | 3 |
| -0.109 | 100 | 93 | inactive | CCDC170 (GeneID 80129) | 4 |
| -0.209 | 64.4 | 55.7 | inactive | CD200R1 (GeneID 131450) | 1 |
| -0.535 | 66 | 45.6 | inactive | CD200R1 (GeneID 131450) | 2 |
| 0.447 | 64.1 | 87.4 | inactive | CD200R1 (GeneID 131450) | 3 |
| -0.533 | 85.2 | 58.9 | inactive | CD200R1 (GeneID 131450) | 4 |
| -0.173 | 73.4 | 65.1 | inactive | GZMB (GeneID 3002) | 1 |
| -0.129 | 81.9 | 74.9 | inactive | GZMB (GeneID 3002) | 2 |
| -0.251 | 89.2 | 75 | inactive | GZMB (GeneID 3002) | 3 |
| 0.546 | 67.2 | 98.1 | inactive | GZMB (GeneID 3002) | 4 |
| -0.594 | 36.9 | 24.4 | inactive | STAMBPL1 (GeneID 57559) | 1 |
| -0.232 | 84.5 | 71.9 | inactive | STAMBPL1 (GeneID 57559) | 2 |
| -0.247 | 92.2 | 77.6 | inactive | STAMBPL1 (GeneID 57559) | 3 |
| 0.0317 | 79.9 | 81.7 | inactive | STAMBPL1 (GeneID 57559) | 4 |
| -0.105 | 110 | 103 | inactive | SOCS4 (GeneID 122809) | 1 |
| 0.638 | 37.9 | 59 | inactive | SOCS4 (GeneID 122809) | 2 |
| -0.235 | 55.9 | 47.5 | inactive | SOCS4 (GeneID 122809) | 3 |
| -0.0153 | 95.9 | 94.9 | inactive | SOCS4 (GeneID 122809) | 4 |
| -0.0436 | 119 | 116 | inactive | SMC3 (GeneID 9126) | 1 |
| -0.237 | 127 | 108 | inactive | SMC3 (GeneID 9126) | 2 |
| -0.00366 | 71.4 | 71.2 | inactive | SMC3 (GeneID 9126) | 3 |
| -0.14 | 71.8 | 65.2 | inactive | SMC3 (GeneID 9126) | 4 |
| -0.494 | 85.6 | 60.8 | inactive | TLN1 (GeneID 7094) | 1 |
| -0.12 | 83.5 | 76.9 | inactive | TLN1 (GeneID 7094) | 2 |
| -0.344 | 68.3 | 53.8 | inactive | TLN1 (GeneID 7094) | 3 |
| 0.449 | 29.6 | 40.4 | inactive | TLN1 (GeneID 7094) | 4 |
| 0.182 | 91.1 | 103 | inactive | PLEC (GeneID 5339) | 1 |
| -0.0154 | 101 | 99.5 | inactive | PLEC (GeneID 5339) | 2 |
| -0.44 | 21.7 | 16 | inactive | PLEC (GeneID 5339) | 3 |
| -0.303 | 95.2 | 77.2 | inactive | PLEC (GeneID 5339) | 4 |
| 0.127 | 39.5 | 43.2 | inactive | SPSB1 (GeneID 80176) | 1 |
| -0.579 | 105 | 70.6 | inactive | SPSB1 (GeneID 80176) | 2 |
| 0.346 | 58.8 | 74.8 | inactive | SPSB1 (GeneID 80176) | 3 |
| -0.439 | 58.8 | 43.4 | inactive | SPSB1 (GeneID 80176) | 4 |
| -0.121 | 110 | 101 | inactive | TOR1A (GeneID 1861) | 1 |
| -0.0627 | 80.6 | 77.2 | inactive | TOR1A (GeneID 1861) | 2 |
| -0.000107 | 57.4 | 57.4 | inactive | TOR1A (GeneID 1861) | 3 |
| -0.00161 | 93.3 | 93.2 | inactive | TOR1A (GeneID 1861) | 4 |
| -0.0634 | 66.7 | 63.8 | inactive | ATP6V1B1 (GeneID 525) | 1 |
| 0.0589 | 23.7 | 24.7 | inactive | ATP6V1B1 (GeneID 525) | 2 |
| -0.0509 | 75.7 | 73.1 | inactive | ATP6V1B1 (GeneID 525) | 3 |
| 0.295 | 52.2 | 64.1 | inactive | ATP6V1B1 (GeneID 525) | 4 |
| -0.624 | 71.7 | 46.5 | inactive | GAD1 (GeneID 2571) | 1 |
| -0.00968 | 65.9 | 65.5 | inactive | GAD1 (GeneID 2571) | 2 |
| -0.0898 | 98.6 | 92.6 | inactive | GAD1 (GeneID 2571) | 3 |
| -0.442 | 73.9 | 54.4 | inactive | GAD1 (GeneID 2571) | 4 |
| -0.471 | 72.5 | 52.3 | inactive | PRKAG3 (GeneID 53632) | 1 |
| -0.171 | 80.1 | 71.2 | inactive | PRKAG3 (GeneID 53632) | 2 |
| -0.821 | 61.7 | 34.9 | inactive | PRKAG3 (GeneID 53632) | 3 |
| -0.32 | 80.1 | 64.1 | inactive | PRKAG3 (GeneID 53632) | 4 |
| -0.282 | 70.7 | 58.1 | inactive | TNFRSF9 (GeneID 3604) | 1 |
| -0.239 | 75.2 | 63.7 | inactive | TNFRSF9 (GeneID 3604) | 2 |
| -0.362 | 78.6 | 61.2 | inactive | TNFRSF9 (GeneID 3604) | 3 |
| 0.0877 | 46.4 | 49.3 | inactive | TNFRSF9 (GeneID 3604) | 4 |
